Test results published in paper PMC7819943, “Rice protein-binding microarrays: a tool to detect cis-acting elements near promoter regions in rice”.
This is one part of the list.

Chains of the proteins cited; added tags and fusions are not shown.
UniProt Q0JBA9, entry or part of it: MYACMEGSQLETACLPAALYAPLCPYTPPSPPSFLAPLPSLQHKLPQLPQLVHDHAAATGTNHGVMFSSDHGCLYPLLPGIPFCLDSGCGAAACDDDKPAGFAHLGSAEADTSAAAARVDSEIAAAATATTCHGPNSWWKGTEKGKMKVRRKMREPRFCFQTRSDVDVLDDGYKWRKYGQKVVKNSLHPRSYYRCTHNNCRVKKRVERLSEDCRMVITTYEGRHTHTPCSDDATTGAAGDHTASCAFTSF

Biological target: OsWRKY34 (Oryza sativa, UniProt Q0JBA9 1-250)
Experiment: protein-binding microarray (RPBM); PBS, 2% BSA, 51.3 ng/ul salmon testes DNA, 50 uM zinc acetate, 200 nM TF, 25 C, 1 h; high values mean tight binding
Conditions: protein: recombinant; tags: N-terminal polyhistidine and DsRed monomer fusion (pET32a); label: CyDye5-dUTP incorporated in the synthesized complementary strand; 3' TTTTT single-stranded linker to array surface; dsDNA, one strand shown
In short: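 In PBS with 2% BSA, salmon testes DNA and 50 µM zinc acetate, 200 nM protein was incubated on a custom Agilent array at 25 °C for 1 h and then washed off. The array had been made double-stranded by primer extension with Cy5-dUTP and blocked with 2% BSA. The proteins were transcription factors fused N-terminally to polyhistidine and DsRed, expressed in E. coli BL21-CodonPlus and purified on Ni–NTA. The binding signal is per-feature fluorescence intensity (arbitrary units) from an Axon 4000B scanner.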

Sequence	binding signal
TGTCTTCTGTTGTTCTTCCTCTACATCTACATCTCTCGGGCGGAGTCACCTAGTGCAG	9920 fluorescence intensity (a.u.)
TGTGCCTGCCGACTCGCCCACGCAACTCCGACTCTTTCCTCGGAGTCACCTAGTGCAG	13500 fluorescence intensity (a.u.)
ATCATGGCCAATCCACACTTGTTGTTGTTCTTTCCCTTCGCGGAGTCACCTAGTGCAG	8600 fluorescence intensity (a.u.)
AACTCTTTTTAGGCTGCGTTCGTTCTAGATACATTGAGTTCGGAGTCACCTAGTGCAG	9260 fluorescence intensity (a.u.)
CCTCTCGATCTCGCCTCCGCCGTCCGCCGCCGCCGCCGCCCGGAGTCACCTAGTGCAG	14400 fluorescence intensity (a.u.)
AGGACACCTTAGCATTCAGCCATCTTATTTCTCTGTATTACGGAGTCACCTAGTGCAG	9420 fluorescence intensity (a.u.)
TTGCTATATATTATACTCCTTCACTTTTCATCCACTCTCCCGGAGTCACCTAGTGCAG	8270 fluorescence intensity (a.u.)
CCGCAGCTCCGCAACCTCGACCGCTTCGACTCCAACATCACGGAGTCACCTAGTGCAG	8240 fluorescence intensity (a.u.)
ATCTCTTTTGCATTTGTTCGTCCCTTTCGTTTTCAACTTGCGGAGTCACCTAGTGCAG	9290 fluorescence intensity (a.u.)
GGGTGGGGTGGGCCTGGGCTGATGCATGTTTGGCGCTTAGCGGAGTCACCTAGTGCAG	21200 fluorescence intensity (a.u.)
AGACTGGTTTTTTATTGGTTGGTCAACAAAGCCATTCCTTCGGAGTCACCTAGTGCAG	9110 fluorescence intensity (a.u.)
CGCATCATCCGCCTAATAACCATGAACTCGGAGGGAGGGACGGAGTCACCTAGTGCAG	8510 fluorescence intensity (a.u.)
ACGGATTTAACACTCACTATTTATGACATGTGTACCATCACGGAGTCACCTAGTGCAG	9100 fluorescence intensity (a.u.)
CCTCAGTTCCCGGCCACATCCGTCGGCATCTTCTTCCTTCCGGAGTCACCTAGTGCAG	9560 fluorescence intensity (a.u.)
ACTTCCGATCCCACCACCCACATGCGCCGCCTACCCACCTCGGAGTCACCTAGTGCAG	9140 fluorescence intensity (a.u.)
ATGCCCGTCGCTTTCAGTTCGCGTGCCCGCTTCACGTATCCGGAGTCACCTAGTGCAG	9740 fluorescence intensity (a.u.)
TAATGTTTTCTTTCATACTATTGTGAAATTCATCGTTTTGCGGAGTCACCTAGTGCAG	8270 fluorescence intensity (a.u.)
TGTTTCGGCGCAAGAGGTCGCCTACCTGCACAAGTTCTGTCGGAGTCACCTAGTGCAG	8170 fluorescence intensity (a.u.)
TTTTCCTTAGTCAAAGTTATATATGTTTGACTAAATTTATCGGAGTCACCTAGTGCAG	18000 fluorescence intensity (a.u.)
GGGATGGCGGTTCTCATTTTCTCAAGTGATAGAATCCAATCGGAGTCACCTAGTGCAG	8830 fluorescence intensity (a.u.)
GAGTTTTTCCATACTACGTTTCACCACTCGTCTTATTCAACGGAGTCACCTAGTGCAG	11800 fluorescence intensity (a.u.)

Sequence	binding signal
AGTTTTGTCACATGATGGATTTCGATGCCACACTAATCTTCGGAGTCACCTAGTGCAG	9910 fluorescence intensity (a.u.)
ATTCACCATCGTTGTTTCTTTGTGATCTAATACGCGGACCCGGAGTCACCTAGTGCAG	8630 fluorescence intensity (a.u.)
AATATGGTGCATGGGCGTTGGTTAGTTTGGTTGGGTTGGTCGGAGTCACCTAGTGCAG	11200 fluorescence intensity (a.u.)
CTGTTTGAACAAGTGCACGTACGTACTCCGCTTATTAGTTCGGAGTCACCTAGTGCAG	8360 fluorescence intensity (a.u.)
GTGGTGTGTATATGGTGGTAGTTGCACAACAATAGTGAGACGGAGTCACCTAGTGCAG	8510 fluorescence intensity (a.u.)
GCATTTACGTTCAGTCTGGCCTTGTACTATACATTGCACCCGGAGTCACCTAGTGCAG	9160 fluorescence intensity (a.u.)
GCTCGCAGTCTCGCCCACCGCCACCGCCACTGCACTCCGGCGGAGTCACCTAGTGCAG	9250 fluorescence intensity (a.u.)
AATTATTTGTTCTGTATTGTTTTGTTTTACTATATCTTCTCGGAGTCACCTAGTGCAG	11200 fluorescence intensity (a.u.)
TGCTTTGTCCACTTCATCGGTTAGTTCAACCATCCATTTCCGGAGTCACCTAGTGCAG	12900 fluorescence intensity (a.u.)
CATCCTTCACAGCTGGCCATTTATTATAGAGTAATTTACACGGAGTCACCTAGTGCAG	10500 fluorescence intensity (a.u.)
CAACTGACGGCCCAGCCCGCTAGCCGCCTCCGCAAGTCCGCGGAGTCACCTAGTGCAG	8040 fluorescence intensity (a.u.)
CATAAACTTATTCCTTTCTCTTTCTTTTCTTTTGAAATCACGGAGTCACCTAGTGCAG	8280 fluorescence intensity (a.u.)
AATCCATAATTAGTAAATATTTACTGTAGCACCATATTGTCGGAGTCACCTAGTGCAG	9810 fluorescence intensity (a.u.)
CATGCCTCATCGTTGCTCCATACTACCACACCACACCTCACGGAGTCACCTAGTGCAG	11600 fluorescence intensity (a.u.)
CTCTCTGCCATCTCATCCACAGTGACCTCTCTCTCCAAGACGGAGTCACCTAGTGCAG	8600 fluorescence intensity (a.u.)
GAACCCGCCGCCGCCGCCGCCGCCTCCGCCTGTAGCGAGACGGAGTCACCTAGTGCAG	8350 fluorescence intensity (a.u.)
ATTCGTCTGAAAATTGTGTTTCACATGCGTCATTTCTCTACGGAGTCACCTAGTGCAG	8080 fluorescence intensity (a.u.)
GTTAGTAACTTATTTACTCATAGCTGATCGACTTAGTAATCGGAGTCACCTAGTGCAG	8140 fluorescence intensity (a.u.)
ATTGGTCCACGCGCTCACACGAGTTTACACTTATGCCCCTCGGAGTCACCTAGTGCAG	9710 fluorescence intensity (a.u.)
TTTTTCTCTCCCGATCGATCGCGAATCCCTTTCCGTTGGCCGGAGTCACCTAGTGCAG	9350 fluorescence intensity (a.u.)
TTGGCAAATTGACCGTGATGGGTTCTTTGTTTCCGTTTGCCGGAGTCACCTAGTGCAG	8390 fluorescence intensity (a.u.)

Sequence	binding signal
TTAGTATGTCTAGATTTGTTGTATTAGGAAACGTCTAATCCGGAGTCACCTAGTGCAG	9040 fluorescence intensity (a.u.)
ATCACATAACACACTCGCAATCTCACATGGTAACACTACCCGGAGTCACCTAGTGCAG	8490 fluorescence intensity (a.u.)
GCCTCGAATCTAAATACTCCTACATAGGTTTCATACTTTCCGGAGTCACCTAGTGCAG	10000 fluorescence intensity (a.u.)
ATTTTCCTATGAGTCATCAGCTGTTGACCAAACGATGAGACGGAGTCACCTAGTGCAG	8740 fluorescence intensity (a.u.)
GCATCGAAATACTATTTTCGTTCATTGGTATGTTCTCATTCGGAGTCACCTAGTGCAG	9860 fluorescence intensity (a.u.)
AAATTACCGCCGTTACACTATATTTACAATGTAAATACACCGGAGTCACCTAGTGCAG	9370 fluorescence intensity (a.u.)
ATATCCAGGTGTGTATTCTTGCTTGTGCTTTTGATGTGCCCGGAGTCACCTAGTGCAG	8560 fluorescence intensity (a.u.)
CTAGCTACCTTTACCTTTTTCGATCTCTTCTCTTCATCTCCGGAGTCACCTAGTGCAG	10200 fluorescence intensity (a.u.)
CAAAATGTTTGACATCGTTGACTTTTTAGCACATGTTTGACGGAGTCACCTAGTGCAG	15300 fluorescence intensity (a.u.)
CATACATGTTACATCTCATCTCACAGGCAGGCGCTCGTACCGGAGTCACCTAGTGCAG	8270 fluorescence intensity (a.u.)
AATGTGAGGGTTGGGTCCAAAAAGGTTTGGGCTGAAATTTCGGAGTCACCTAGTGCAG	12100 fluorescence intensity (a.u.)
TTTCTTTTCTTTTCTTTTTTTTTTTGGGGCAACTGTTAGACGGAGTCACCTAGTGCAG	10500 fluorescence intensity (a.u.)
TGATTGCTTCTCTGTTCCCATTCCCTTTCTACGCACACTGCGGAGTCACCTAGTGCAG	8800 fluorescence intensity (a.u.)
ACTCTCTCCCGGCAATAATTGGTGACTGCTTCCACTTTTACGGAGTCACCTAGTGCAG	9380 ± 810 fluorescence intensity (a.u.)
CCCACACGCATCTCCCAACTCGACTCGACCCAACGTCCCACGGAGTCACCTAGTGCAG	8240 fluorescence intensity (a.u.)
CCCTTGTCATCGTCATCCGATTGTGCCTTCCCTGATTTTCCGGAGTCACCTAGTGCAG	8430 fluorescence intensity (a.u.)
ATGCCCATTGACTATCCCTAGTACTACTATGTGTTTGATCCGGAGTCACCTAGTGCAG	8730 fluorescence intensity (a.u.)
TGCACTCGTGCGTATGCCGTCTTATCTCCTGCATATGCCGCGGAGTCACCTAGTGCAG	9390 fluorescence intensity (a.u.)
TATGCTCACTCTTGAGAGTCCGGAACGTTGACCTTGCTATCGGAGTCACCTAGTGCAG	10000 fluorescence intensity (a.u.)
CCAGACAGCTTCAGTTTGCAACGTACCCAAGTAAGAAACACGGAGTCACCTAGTGCAG	9150 fluorescence intensity (a.u.)
GATTCGATGTATTTTGTTCATATGTTCATGCTTGGGCAAGCGGAGTCACCTAGTGCAG	9010 fluorescence intensity (a.u.)

Sequence	binding signal
GCCTAGTACATAACTCGAACCCTACTCCTATCTCCAAAATCGGAGTCACCTAGTGCAG	8560 fluorescence intensity (a.u.)
CTCCTCGGCCGTATCGCCTAACTACACCACCCCATCTTCTCGGAGTCACCTAGTGCAG	11000 fluorescence intensity (a.u.)
CGTACCAAACCACAAAGTCATTACCCCGTTCATTTGTCAACGGAGTCACCTAGTGCAG	8680 fluorescence intensity (a.u.)
GTGAGATTCATCCAGATTCCTGGACGGCCAGCTCATTTCCCGGAGTCACCTAGTGCAG	8160 fluorescence intensity (a.u.)
TTTATGAGCTCATCAACTTCTTTCAAGTCCCTGTACTTGACGGAGTCACCTAGTGCAG	9860 fluorescence intensity (a.u.)
AGCTACAGTCTACCATTGTCGTTGGTCTGATCATGAGCTCCGGAGTCACCTAGTGCAG	8170 fluorescence intensity (a.u.)
TTATGTCACATTAGTGTACTCGCTCTTAATTTTCGTCTCTCGGAGTCACCTAGTGCAG	8250 fluorescence intensity (a.u.)
GCGCCGCAGCCTCCGCCACCCGCGCGCCGTAGCCGACGACCGGAGTCACCTAGTGCAG	8860 fluorescence intensity (a.u.)
CAAGCATGCACTAATCTACCTCTCCATTTTACGTACTTGACGGAGTCACCTAGTGCAG	8340 fluorescence intensity (a.u.)
AAAAATATCTCCCGCGAGTTCCTCATGGCTTATCATAGCACGGAGTCACCTAGTGCAG	9410 fluorescence intensity (a.u.)
TATTATTTATAGTCCACCGCTAGCCATCGCACTCTGCAGCCGGAGTCACCTAGTGCAG	12200 fluorescence intensity (a.u.)
AAACTGCAACAACCGCCACGCCAGAGTCCACCGCACGCCACGGAGTCACCTAGTGCAG	8350 fluorescence intensity (a.u.)
CTAGACTGTGCCCTCTATTTCCACTCCGGCTGACGGCATTCGGAGTCACCTAGTGCAG	9600 fluorescence intensity (a.u.)
CTTTTTTTCATGTGATTTTTCGGCTTTTCTCACTTCTTAACGGAGTCACCTAGTGCAG	12900 fluorescence intensity (a.u.)
ATGCATACAACTTGCATTGTTTCTTTGATGTTCCATTTGGCGGAGTCACCTAGTGCAG	8120 fluorescence intensity (a.u.)
TGATCCGTGCCATCGTAACTATGCCTATTCAGATAAATGCCGGAGTCACCTAGTGCAG	9450 fluorescence intensity (a.u.)
TAACGCCGTTTACCTTTTAACAAACGTTTTACCTTTCGTTCGGAGTCACCTAGTGCAG	10400 fluorescence intensity (a.u.)
TCTCTTATGTATTGGGCTGTGTGGGTCAAGTACGCCTCGCCGGAGTCACCTAGTGCAG	8700 fluorescence intensity (a.u.)
AAAATAGTGCTTATCCGTGCTGTGCTTAACCGCGAAATTTCGGAGTCACCTAGTGCAG	9260 fluorescence intensity (a.u.)
CACCTTTTTTTAATTTTTTGGTTTCCAATTTTTATTTTTTCGGAGTCACCTAGTGCAG	10900 fluorescence intensity (a.u.)
CCCAACCGAACCAACTACGCGTCCGTCCGTCTCACGTGCACGGAGTCACCTAGTGCAG	9150 fluorescence intensity (a.u.)

An excerpt from the list above:
Sequence	binding signal
AAAATAGTGCTTATCCGTGCTGTGCTTAACCGCGAAATTTCGGAGTCACCTAGTGCAG	9260 fluorescence intensity (a.u.)
CACCTTTTTTTAATTTTTTGGTTTCCAATTTTTATTTTTTCGGAGTCACCTAGTGCAG	10900 fluorescence intensity (a.u.)

In a second layout: results already given
Sequence | binding signal
ATCTCTTTTGCATTTGTTCGTCCCTTTCGTTTTCAACTTGCGGAGTCACCTAGTGCAG | 9290 fluorescence intensity (a.u.)
GGGTGGGGTGGGCCTGGGCTGATGCATGTTTGGCGCTTAGCGGAGTCACCTAGTGCAG | 21200 fluorescence intensity (a.u.)
AGACTGGTTTTTTATTGGTTGGTCAACAAAGCCATTCCTTCGGAGTCACCTAGTGCAG | 9110 fluorescence intensity (a.u.)
CGCATCATCCGCCTAATAACCATGAACTCGGAGGGAGGGACGGAGTCACCTAGTGCAG | 8510 fluorescence intensity (a.u.)
